In PMC10765763:
No constants are given. Whether binding was seen depends on the method and setting. Binding seen in cells or lysates may run through a third protein.

Tests used:
[1] = molecular target: AKT (mouse (endogenous in hippocampus)); experiment: co-IP; mouse hippocampal tissue lysates (3 mice in each group; control and CSDS 10 d), precleared with protein G or A beads, incubated with the appropriate antibody overnight at 4 °C, collected on protein A/G Plus-Agarose, immunoblotting; IgG as negative control
[2] = molecular target: phosphatidylinositol 3-kinase (PI3K) (mouse (endogenous in hippocampus)); experiment: as above

binding [1]: no binding | binding [2]: no binding
B1: nucleotide-binding oligomerization domain, leucine-rich repeat and pyrin domain-containing 1 (NLRP1) (protein, UniProt Q2LKU9 1-1182)
chain: MEESQSKQESSTKVAQHEGQEDVDPTFKTKKLMEVELMKHRVQLERNLKLRTFPGARTKQVKEALYPLLTWSSKSKNLFQNFTKLLLFKKLCQRGSENLVRESWYPCVPEEEAHMIDIQDLFGPNLGTQKKPQLVIIEGAAGIGKSTLARLVKRAWKEGKLYRNDFHHVFFFSCRELAQYEQLSLAELIVQGQEVPTAPIRQILSHPEKLLFILDGIDEPAWVLADQNPELCLHWSQTQPVHTLLGSLLGKSILPGASFLLTTRTTALQKFIPSLEQPCQVEVLGFTLFERKNYFYKYFGKKKGGVTTFTLVKSNSALLTLCEVPWVCWLVCTCLKKQMEQGGELSLTSQTTTALCLKYLSLTIPGQHMRTQLRDLCSLAAEGVCQRRTLFSESDLCKQGLDEHAIASFLKIGVLQKQASSLSYSFAHLCLQEFFAAMSYILDDSEERHADMKNDRIVETLVERYGRQNLFEAPTVRFLFGLLSKEELKKIEKLFSCSLHGKTKLKLLWHILGKSQPHQPPCLGLLHCLYENQDMELLTHVMHDLQGTIVPGPDDLAHTVLQTNVKHLVIQTDMDLMVVTFCIKFCCHVRSLQLNRKVQQGHKFTAPGMVLYRWTPITDASWKIFFSNLKLARNLEELDLSGNPLSYYAVHSLCTTLRKRGCQLKTLWLVECGLTSTYCSLLASVLSARSSLTELDLQLNDLGDGGVKMLCEGLRNPACNLSILWLDQASLSDQVIAELRTLEAKNPKLLISSTWKPHVMVPTMNMDKEEVGDSQALLKQQRQQSGDKHMEPLGTEDEFWGPTGPVTTEVVDRERNLYRVQLPMAGSYHCPSTGLHFVVTRAVTIEIEFCAWSQYLDKTPLQQSHMVVGPLFDIKAEQGAVTAVYLPHFVALQEGIVDSSLFHVAHFQEHGMVLETPARVEQHYAVLENPSFSPMGILLRMIPAVGHFIPITSTTLIYYHLYLEDVTFHLYLVPNDCSIRKAIDDEEMKFQFVRINKPPPVDALYLGSRYIVSSSKLVEIIPKELELCYRSPGESQLFSEIDIGHMDSEIKLQIKDKRHMNLKWEALLKPGDLRPALPKIATAPKDAPSLLHFMDQHREQLVARVTSVDPLLDKLHGLVLSEDSYEVVRSETTNQDKMRKLFSLSRSWSWDCKDQFYQALKETHPHLVMDILEKLGGVSVKS
